{"source": "PubChem BioAssay AID328", "about": "(DTP/NCI, 2004)", "test_system": "BDF1 mice, P388 leukemia ip, median survival T/C", "assay": "NCI In Vivo Anticancer Drug Screen. Data for tumor model P388 Leukemia (intraperitoneal) in B6D2F1 (BDF1) mice", "conditions": "T/C endpoint: median survival time, higher T/C = longer survival", "summary_of_the_method": "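Compound-treated tumour-bearing mice were compared with vehicle-treated controls. Survival was recorded, and the value is the treated-group measurement divided by the control-group measurement (T/C).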", "note": "The list does not hold the whole screen: it is rich in T/C values a quarter to a half above the control, in often repeated tests (any T/C) and in doses without a T/C. Other doses and runs of a compound stand elsewhere. T/C: endpoint of the treated group in % of that of the vehicle group. Some doses have a count of surviving animals in place of a T/C: the source holds a T/C of zero for them, seemingly a mark for toxic or unscored doses. Some survivor counts are full or nearly so, which does not show that the dose was tolerated: the source hardly ever lists a survival T/C far under the control, and the zero likely stands for such cases as well. Survivors were counted at the toxicity check, usually on the fifth day, unless a day is given; later deaths do not show. Schedules are NCI's codes, read here as Q, the interval in days (D) or hours (H), X, the number of doses. For survival time, the PubChem record calls one and a half times the control and up active, and a quarter to a half above the control has no call in these data; cut-offs in other NCI protocols can differ. Some T/C values carry the count of animals alive at the toxicity check (mostly the fifth day); without a count, all were alive then.", "data": [{"smiles": "COC1=C(N)C(=O)c2nc(-c3nc(C(=O)O)c(C)c(-c4ccc(OC)c(OC)c4O)c3N)ccc2C1=O", "values": [{"measurement": "T/C", "setting": "dose: 0.02 mg/kg/injection, schedule: Q01DX010 (ip), vehicle: saline", "result": "130 % of control"}, {"measurement": "T/C", "setting": "dose: 0.03 mg/kg/injection, schedule: Q01DX010 (ip), vehicle: saline", "result": "127 % of control"}, {"measurement": "T/C", "setting": "dose: 0.05 mg/kg/injection, schedule: Q01DX009 (ip), vehicle: other", "result": "127 % of control"}, {"measurement": "T/C", "setting": "dose: 0.05 mg/kg/injection, schedule: Q01DX010 (ip), vehicle: other", "result": "136 % of control"}, {"measurement": "T/C", "setting": "dose: 0.07 mg/kg/injection, schedule: Q01DX009 (ip), vehicle: dioxane, evaluated on day 5", "result": "126 % of control"}, {"measurement": "T/C", "setting": "dose: 0.07 mg/kg/injection, schedule: Q01DX009 (ip), vehicle: dioxane, evaluated on day 30", "result": "126 % of control"}, {"measurement": "T/C", "setting": "dose: 0.08 mg/kg/injection, schedule: Q01DX009 (ip), vehicle: saline with Tween-80", "result": "139 % of control"}, {"measurement": "T/C", "setting": "dose: 0.1 mg/kg/injection, schedule: Q01DX009 (ip), vehicle: other", "result": "140 % of control"}, {"measurement": "T/C", "setting": "dose: 0.1 mg/kg/injection, schedule: Q01DX010 (ip), vehicle: other", "result": "145 % of control"}, {"measurement": "T/C", "setting": "dose: 0.1 mg/kg/injection, schedule: Q01DX010 (ip), vehicle: steroid suspending solution", "result": "145 % of control"}, {"measurement": "T/C", "setting": "dose: 0.1 mg/kg/injection, schedule: Q01DX010 (ip), vehicle: water", "result": "145 % of control"}, {"measurement": "T/C", "setting": "dose: 0.1 mg/kg/injection, schedule: Q04DX002 (ip), vehicle: saline", "result": "127 % of control"}, {"measurement": "T/C", "setting": "dose: 0.12 mg/kg/injection, schedule: Q01DX009 (ip), vehicle: saline with Tween-80", "result": "135 % of control"}, {"measurement": "T/C", "setting": "dose: 0.18 mg/kg/injection, schedule: Q01DX009 (ip), vehicle: saline with Tween-80", "result": "139 % of control"}, {"measurement": "T/C", "setting": "dose: 0.19 mg/kg/injection, schedule: Q01DX010 (ip), vehicle: other", "result": "136 % of control"}, {"measurement": "T/C", "setting": "dose: 0.19 mg/kg/injection, schedule: Q01DX010 (ip), vehicle: steroid suspending solution", "result": "140 % of control"}, {"measurement": "T/C", "setting": "dose: 0.2 mg/kg/injection, schedule: Q01DX009 (ip), vehicle: other", "result": "131 % of control"}, {"measurement": "T/C", "setting": "dose: 0.2 mg/kg/injection, schedule: Q01DX009 (ip), vehicle: saline", "result": "133 % of control"}, {"measurement": "T/C", "setting": "dose: 0.2 mg/kg/injection, schedule: Q01DX010 (ip), vehicle: saline", "result": "131 % of control"}, {"measurement": "survivor count", "setting": "dose: 0.2 mg/kg/injection, schedule: Q01DX010 (ip), vehicle: water", "result": "6 of 6"}, {"measurement": "T/C", "setting": "dose: 0.2 mg/kg/injection, schedule: Q04DX009 (ip), vehicle: saline", "result": "138 % of control"}, {"measurement": "T/C", "setting": "dose: 0.25 mg/kg/injection, schedule: Q04DX003 (ip), vehicle: other", "result": "133 % of control"}, {"measurement": "survivor count", "setting": "dose: 0.38 mg/kg/injection, schedule: Q01DX010 (ip), vehicle: other", "result": "6 of 6"}, {"measurement": "survivor count", "setting": "dose: 0.38 mg/kg/injection, schedule: Q01DX010 (ip), vehicle: steroid suspending solution", "result": "6 of 6"}, {"measurement": "T/C", "setting": "dose: 0.39 mg/kg/injection, schedule: Q04DX002 (ip), vehicle: saline", "result": "139 % of control"}, {"measurement": "T/C", "setting": "dose: 0.39 mg/kg/injection, schedule: Q04DX009 (ip), vehicle: saline", "result": "138 % of control"}, {"measurement": "T/C", "setting": "dose: 0.4 mg/kg/injection, schedule: Q01DX009 (ip), vehicle: saline", "result": "145 % of control"}, {"measurement": "survivor count", "setting": "dose: 0.4 mg/kg/injection, schedule: Q01DX010 (ip), vehicle: water", "result": "6 of 6"}, {"measurement": "T/C", "setting": "dose: 0.4 mg/kg/injection, schedule: Q04DX003 (ip), vehicle: other", "result": "127 % of control"}, {"measurement": "T/C", "setting": "dose: 0.4 mg/kg/injection, schedule: Q08DX002 (ip), vehicle: other", "result": "127 % of control"}, {"measurement": "T/C", "setting": "dose: 0.5 mg/kg/injection, schedule: Q08DX002 (ip), vehicle: other", "result": "125 % of control"}, {"measurement": "survivor count", "setting": "dose: 0.76 mg/kg/injection, schedule: Q01DX010 (ip), vehicle: steroid suspending solution", "result": "2 of 6"}, {"measurement": "survivor count", "setting": "dose: 0.78 mg/kg/injection, schedule: Q04DX009 (ip), vehicle: saline", "result": "3 of 3"}, {"measurement": "survivor count", "setting": "dose: 0.8 mg/kg/injection, schedule: Q01DX010 (ip), vehicle: water", "result": "6 of 6"}, {"measurement": "survivor count", "setting": "dose: 1.0 mg/kg/injection, schedule: Q04DX003 (ip), vehicle: other", "result": "10 of 10"}, {"measurement": "survivor count", "setting": "dose: 1.6 mg/kg/injection, schedule: Q01DX001 (ip), vehicle: other", "result": "8 of 10"}, {"measurement": "survivor count", "setting": "dose: 1.6 mg/kg/injection, schedule: Q08DX002 (ip), vehicle: other", "result": "9 of 10"}, {"measurement": "survivor count", "setting": "dose: 2.0 mg/kg/injection, schedule: Q01DX001 (ip), vehicle: other", "result": "0 of 10"}, {"measurement": "survivor count", "setting": "dose: 2.0 mg/kg/injection, schedule: Q03HX008 (ip), vehicle: other", "result": "10 of 10"}, {"measurement": "survivor count", "setting": "dose: 2.0 mg/kg/injection, schedule: Q04DX003 (ip), vehicle: other", "result": "1 of 10"}, {"measurement": "survivor count", "setting": "dose: 2.0 mg/kg/injection, schedule: Q08DX002 (ip), vehicle: other", "result": "4 of 10"}, {"measurement": "survivor count", "setting": "dose: 4.0 mg/kg/injection, schedule: Q01DX001 (ip), vehicle: other", "result": "0 of 10"}, {"measurement": "survivor count", "setting": "dose: 4.0 mg/kg/injection, schedule: Q08DX002 (ip), vehicle: other", "result": "0 of 10"}, {"measurement": "survivor count", "setting": "dose: 8.0 mg/kg/injection, schedule: Q01DX001 (oral), vehicle: other", "result": "6 of 10"}, {"measurement": "survivor count", "setting": "dose: 16.0 mg/kg/injection, schedule: Q01DX001 (oral), vehicle: other", "result": "1 of 10"}, {"measurement": "T/C", "setting": "dose: 12.5 micrograms/kg/injection, schedule: Q01DX010 (ip), vehicle: steroid suspending solution", "result": "125 % of control"}, {"measurement": "T/C", "setting": "dose: 25.0 micrograms/kg/injection, schedule: Q01DX010 (ip), vehicle: steroid suspending solution", "result": "140 % of control"}, {"measurement": "T/C", "setting": "dose: 31.3 micrograms/kg/injection, schedule: Q03HX024 (ip), vehicle: other", "result": "125 % of control"}, {"measurement": "T/C", "setting": "dose: 50.0 micrograms/kg/injection, schedule: Q01DX010 (ip), vehicle: steroid suspending solution", "result": "125 % of control"}, {"measurement": "T/C", "setting": "dose: 62.5 micrograms/kg/injection, schedule: Q01DX009 (ip), vehicle: other", "result": "141 % of control"}, {"measurement": "T/C", "setting": "dose: 100.0 micrograms/kg/injection, schedule: Q01DX010 (ip), vehicle: steroid suspending solution", "result": "140 % of control [5 of 6 alive]"}, {"measurement": "T/C", "setting": "dose: 125.0 micrograms/kg/injection, schedule: Q01DX009 (ip), vehicle: other", "result": "141 % of control"}, {"measurement": "T/C", "setting": "dose: 144.0 micrograms/kg/injection, schedule: Q04DX003 (ip), vehicle: alkali diluted with saline", "result": "127 % of control"}, {"measurement": "T/C", "setting": "dose: 240.0 micrograms/kg/injection, schedule: Q04DX003 (ip), vehicle: alkali diluted with saline", "result": "135 % of control"}, {"measurement": "survivor count", "setting": "dose: 250.0 micrograms/kg/injection, schedule: Q03HX016 (ip), vehicle: other", "result": "10 of 10"}, {"measurement": "survivor count", "setting": "dose: 250.0 micrograms/kg/injection, schedule: Q03HX024 (ip), vehicle: other", "result": "10 of 10"}, {"measurement": "T/C", "setting": "dose: 400.0 micrograms/kg/injection, schedule: Q04DX003 (ip), vehicle: alkali diluted with saline", "result": "126 % of control"}, {"measurement": "survivor count", "setting": "dose: 500.0 micrograms/kg/injection, schedule: Q01DX009 (ip), vehicle: other", "result": "10 of 10"}, {"measurement": "survivor count", "setting": "dose: 500.0 micrograms/kg/injection, schedule: Q03HX008 (ip), vehicle: other", "result": "0 of 10"}, {"measurement": "survivor count", "setting": "dose: 500.0 micrograms/kg/injection, schedule: Q03HX016 (ip), vehicle: other", "result": "2 of 10"}]}, {"smiles": "Nc1nc(CCl)nc(Nc2ccccc2)n1", "values": [{"measurement": "survivor count", "setting": "dose: 200.0 mg/kg/injection, schedule: Q01DX009 (ip), vehicle: Klucel (hydroxypropylcellulose) (HPC)", "result": "3 of 6"}, {"measurement": "survivor count", "setting": "dose: 400.0 mg/kg/injection, schedule: Q01DX009 (ip), vehicle: Klucel (hydroxypropylcellulose) (HPC)", "result": "0 of 6"}]}, {"smiles": "O=S(=O)(O)C1CCCCC1O", "note": "(stereo not given)", "values": [{"measurement": "survivor count", "setting": "dose: 400.0 mg/kg/injection, schedule: Q04DX002 (ip), vehicle: saline with Tween-80", "result": "1 of 6"}]}, {"smiles": "Nc1ncnc2c1c(C(=O)O)cn2C1OC(CO)C(O)C1O", "note": "(stereo not given)", "values": [{"measurement": "T/C", "setting": "dose: 66.0 mg/kg/injection, schedule: Q04DX003 (ip), vehicle: saline with Tween-80", "result": "145 % of control"}]}, {"smiles": "COc1cc2c(c(OC)c1OC)-c1ccc(SC)c(=O)cc1[C@@H](NC1OC(CO)C(O)C(O)C1O)CC2", "note": "(stereo not given in full)", "values": [{"measurement": "survivor count", "setting": "dose: 35.0 mg/kg/injection, schedule: Q01DX009 (ip), vehicle: saline", "result": "6 of 6"}, {"measurement": "survivor count", "setting": "dose: 50.0 mg/kg/injection, schedule: Q01DX009 (ip), vehicle: saline", "result": "5 of 6"}, {"measurement": "survivor count", "setting": "dose: 75.0 mg/kg/injection, schedule: Q01DX009 (ip), vehicle: saline", "result": "5 of 6"}, {"measurement": "survivor count", "setting": "dose: 100.0 mg/kg/injection, schedule: Q01DX009 (ip), vehicle: saline", "result": "3 of 6"}, {"measurement": "survivor count", "setting": "dose: 200.0 mg/kg/injection, schedule: Q01DX009 (ip), vehicle: saline", "result": "0 of 6"}, {"measurement": "survivor count", "setting": "dose: 400.0 mg/kg/injection, schedule: Q01DX009 (ip), vehicle: saline", "result": "0 of 6"}]}]}
